Here are results for one molecule from US12723100.

For this test, the target named is rat Nectin-4 (rat). In words: condition: binding EC50 about 133 nM were indicated as "-"; flow cytometry, transfected 293T cells. For orientation: Flow cytometry measures light scatter and fluorescence of single cells or particles in a stream.

Results are given in words; binding and its absence hold for the method and conditions named.

B1: N4_mAb 1 (antibody, human IgG1, V domains shown, not shown: a dimerising Fc or GST)
VH: QVQLKQSGPGLVQPSQSLSITCTVSGFSLTNYGVNWVRQPPGKGLEWLGVIWSGGSTDYNAAFISRLSISKDISKSQVFFKMNSLQADDTAKYYCAREGYDGYAMDYWGQGTSVTVSS
VL: DIQMTQSPASLSVSVGETVTITCRASENIFSSLAWYQQKQGKSPQLLVYGATNLADGVPSRFSGSGSGTQYSLKINSLQSEDFGTYWCQHFWGNPWTFGGGTKLEIK
In the case of B1, the binding entry is given as “no binding”.
